Experimental findings from paper PMC6336269 are described below.

By UniProt entry, the sequences of proteins in these tests, tags left out. Where a name states a change or a piece, a line headed by the entry shows the natural chain unless it says otherwise.
UniProt P40160: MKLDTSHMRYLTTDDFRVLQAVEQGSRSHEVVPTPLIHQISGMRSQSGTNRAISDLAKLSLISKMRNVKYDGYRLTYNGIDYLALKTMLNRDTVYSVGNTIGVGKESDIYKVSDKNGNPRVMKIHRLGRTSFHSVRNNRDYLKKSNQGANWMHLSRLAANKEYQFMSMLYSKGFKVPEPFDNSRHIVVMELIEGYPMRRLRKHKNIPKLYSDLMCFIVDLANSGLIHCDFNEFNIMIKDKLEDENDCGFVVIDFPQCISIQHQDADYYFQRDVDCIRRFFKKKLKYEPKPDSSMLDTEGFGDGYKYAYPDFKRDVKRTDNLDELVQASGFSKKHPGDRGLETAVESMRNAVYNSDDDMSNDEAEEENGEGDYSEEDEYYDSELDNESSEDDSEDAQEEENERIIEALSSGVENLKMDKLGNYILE
UniProt P41819: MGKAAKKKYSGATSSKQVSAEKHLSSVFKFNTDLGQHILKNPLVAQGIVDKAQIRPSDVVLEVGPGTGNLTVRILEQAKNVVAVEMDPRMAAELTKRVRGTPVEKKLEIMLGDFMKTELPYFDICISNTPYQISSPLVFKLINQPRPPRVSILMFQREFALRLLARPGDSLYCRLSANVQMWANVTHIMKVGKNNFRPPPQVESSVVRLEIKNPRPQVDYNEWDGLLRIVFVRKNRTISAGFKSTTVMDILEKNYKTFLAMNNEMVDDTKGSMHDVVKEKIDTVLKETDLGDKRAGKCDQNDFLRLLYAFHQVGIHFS
UniProt Q08745: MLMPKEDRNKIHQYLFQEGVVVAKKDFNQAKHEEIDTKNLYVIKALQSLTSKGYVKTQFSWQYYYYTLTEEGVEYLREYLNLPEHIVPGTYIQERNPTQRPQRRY
UniProt P0C0V8: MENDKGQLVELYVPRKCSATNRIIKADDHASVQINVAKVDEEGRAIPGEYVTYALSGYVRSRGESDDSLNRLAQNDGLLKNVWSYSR
UniProt P32905: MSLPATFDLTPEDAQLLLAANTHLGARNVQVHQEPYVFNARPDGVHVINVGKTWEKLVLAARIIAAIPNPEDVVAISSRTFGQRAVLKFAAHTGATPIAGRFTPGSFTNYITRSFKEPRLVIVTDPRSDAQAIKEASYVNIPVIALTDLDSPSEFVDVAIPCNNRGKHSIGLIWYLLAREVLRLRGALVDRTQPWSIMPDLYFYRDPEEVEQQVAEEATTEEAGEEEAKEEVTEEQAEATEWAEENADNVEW
UniProt P02407: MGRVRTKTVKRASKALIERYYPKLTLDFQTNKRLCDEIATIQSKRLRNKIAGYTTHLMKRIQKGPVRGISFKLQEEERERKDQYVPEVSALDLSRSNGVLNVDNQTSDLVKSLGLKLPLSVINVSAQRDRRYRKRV

The labels stand for the following.
T1: TAP tagged Slx9 (S. cerevisiae) (UniProt P53251)
T1 sequence: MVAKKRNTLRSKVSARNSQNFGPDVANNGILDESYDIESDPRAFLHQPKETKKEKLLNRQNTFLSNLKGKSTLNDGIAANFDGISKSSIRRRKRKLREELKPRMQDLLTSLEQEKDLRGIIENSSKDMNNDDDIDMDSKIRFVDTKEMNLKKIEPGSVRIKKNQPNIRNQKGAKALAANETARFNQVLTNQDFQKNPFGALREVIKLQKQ

B1: Rrp12 (protein, UniProt Q12754 1-1228)
chain: MDQDKVAFLLELEDKLAKIRSQVNSKLENQKHIAIILTAVEENIAGQATNDVSKNIVNYIISFMSLLDQAVDPSTHEIKDIQLASSSTYLLDLIFHYSPKVLLRSKFSEILTKIAPCITAEKANAPLIRAAIGCLESLLIAQDAQAWNNTYDLNVTPKRGLQGILELSLDVRPKVRKRALDAVHAVLLNPPVAPTAEHVAAVFVADFCDKQLAGILNDLSNLSNKQLKAQKTKEDINASVMRSLRLITSVVSTGQWPSSQIEPLCDVLLGVTKSSEQYLVSASFECFESMFKTMAETTISSGLAENKYLRVLDTIFALKPSNVDTLLTKSWIAVVIKGMSTYATHQPLKALRKIPGVFHIMCTYLASETPEVYQAASQCLISILSESVKDDLLLYTPSVDEKVFKNVDEIISQIAKTFIDFLSIRYSHCSREILKILVAAFNKFRYRSNPHFLKSLKIVDTWRVNEEQFMDLRNEIELVIGASISAMGPEMILAEAPLNLDNPSSERPGRAWLLPLIRDYTKNANLATFQNELAPYIKSFQSKFDKVPEESIQLRVFQTIVDQIWSTLPRFCELPMDLRESFTDEFASELSSLLYSEVELRTTICHALKVLAESNVSYAEESSSHNVLLLQRFPISEAQKNIEYLSTKSTNLLAVLFNVYTQTTPNARSYILETIDQYLKITSKEDLEKTFNNVCGLLKNSMNEESSGNVNKEKKKPQLTATLLDLIICMITYLPVSSYSALFSMFSLTVNSADALIQKRAYRIITKLSELKSGSTAVAQFISDIENVMVDSASSVQTSAKAARLTAIKTIVELLPLDHLDFIVRTVAEVILSTKDVNEKSRETAFDTLICMGRKMNEPNGIIKLFQIPGYDPTTPDQSSSISEFFKIISAGLIGESQHMVSSSITGYACLVFEFKNELDSGILMDIYDTIELYLTSNSREIVKSAIGFTKVCVLGLPEELMRPKVPELLLKLLRWSHEHTGHFKAKVKHIIERLIRRFGYDYIEANFPEEDRRLLTNIRKMRNRNKRKDEEVTTGVSDVAATKGSRFMSAFDEAVYGSDEENDNGSDQEENVAGGKMKNGAKQFIVESGDNPLDLLDSQTLAHISSTRPKKFNKNQNRARFNDDAFNFDSEGKLVVKGQPKPSTNVDDPLSAVTSGINAYLEAVKSGPVRGQRNKLKFRKNGKDSDEFGDDDDGEKDSRLMRGRVNQGNKIGKHNKKGPKFKSRKKL
B2: Tsr1 (protein, UniProt Q07381 1-788)
chain: MAGHSHRSSLKNGHKSYKSKHASKGALKRLYKGKVEKEPVGTGKPDKQVSKLQRKNKAKQLRAQRILDSIENRKLFEGKNGAAKIITIVPLVNDLDPLDILYKLLKCADDEGIMVQEVDSKRIFNVHIKKFKSNLKIIIPDMTNFLNILDCAKVADFVVFGLSGVQEVDEEFGEQIIRALELQGIASYIGVISNLSAVHEKEKFQLDVKQSLESYFKHFFPSEERVYNLEKNSDALNVLRTLCQRLPRSINWRDNRGYVVADFVDFVETSPDSGDLVIEGTVRGIGFNANRLVHIPDFGDFQLNKIEKISESSQKRKIIKEKATDSLSLELDLQTVFESNMNRDTLDEYAPEGTEDWSDYDEDFEYDGLTTARYDDHGFLPGREQTSKKAAVPKGTSDYQAKWYLDDVIDANEEEEAEQTNGKDETMMEIDDEMMVEQDNEEVAGDEEYDIEDNEGFEELSPEEEERQLREFRDMEKEDREFPDEIELEPSESAIERLKRYRGLKNLYNCDWQVDEKDPSSPAEWKRLLRIGNYKNTKNRIIKETKNEAQAIAGDRIRMFIRFPKFLLEKIQDPKQLLFAVYGLLLHEHKNAVVNFSLQRWEQYDKPVPSQEPIVVQYGVRRYTIQPLFSQGSNSPNNVHKYERFLHPDTVSVATCIAPVDFTQSPAIFFKPSPTDAKNIELIGHGTFLNADHSRILAKRAILTGHPFRFHKTVVTVRYMFFRPEDVEWFKSIPLFTKSGRSGFIKESLGTHGYFKATFDGKLSAQDVVAMSLYKRMWPMPSLPWNGM
B3: Enp1 (protein, UniProt P38333 1-483)
chain: MARASSTKARKQRHDPLLKDLDAAQGTLKKINKKKLAQNDAANHDAANEEDGYIDSKASRKILQLAKEQQDEIEGEELAESERNKQFEARFTTMSYDDEDEDEDEDEEAFGEDISDFEPEGDYKEEEEIVEIDEEDAAMFEQYFKKSDDFNSLSGSYNLADKIMASIREKESQVEDMQDDEPLANEQNTSRGNISSGLKSGEGVALPEKVIKAYTTVGSILKTWTHGKLPKLFKVIPSLRNWQDVIYVTNPEEWSPHVVYEATKLFVSNLTAKESQKFINLILLERFRDNIETSEDHSLNYHIYRAVKKSLYKPSAFFKGFLFPLVETGCNVREATIAGSVLAKVSVPALHSSAALSYLLRLPFSPPTTVFIKILLDKKYALPYQTVDDCVYYFMRFRILDDGSNGEDATRVLPVIWHKAFLTFAQRYKNDITQDQRDFLLETVRQRGHKDIGPEIRRELLAGASREFVDPQEANDDLMIDVN
B4: Asc1 (protein, UniProt P38011 1-319)
chain: MASNEVLVLRGTLEGHNGWVTSLATSAGQPNLLLSASRDKTLISWKLTGDDQKFGVPVRSFKGHSHIVQDCTLTADGAYALSASWDKTLRLWDVATGETYQRFVGHKSDVMSVDIDKKASMIISGSRDKTIKVWTIKGQCLATLLGHNDWVSQVRVVPNEKADDDSVTIISAGNDKMVKAWNLNQFQIEADFIGHNSNINTLTASPDGTLIASAGKDGEIMLWNLAAKKAMYTLSAQDEVFSLAFSPNRYWLAAATATGIKVFSLDPQYLVDDLRPEFAGYSKAAEPHAVSLAWSADGQTLFAGYTDNVIRVWQVMTAN
B5: rpS2 (uS5) (protein, UniProt P25443 1-254)
chain: MSAPEAQQQKRGGFGGRNRGRPNRRGPRNTEEKGWVPVTKLGRLVKAGKITTIEEIFLHSLPVKEFQIIDTLLPGLQDEVMNIKPVQKQTRAGQRTRFKAVVVVGDSNGHVGLGIKTAKEVAGAIRAGIIIAKLSVIPIRRGYWGTNLGQPHSLATKTTGKCGSVTVRLIPAPRGSGIVASPAVKKLLQLAGVEDVYTQSNGKTRTLENTLKAAFVAIGNTYGFLTPNLWAEQPLPVSPLDIYSDEASAQKKRF
B6: rpS3 (uS3) (protein, UniProt P05750 1-240)
chain: MVALISKKRKLVADGVFYAELNEFFTRELAEEGYSGVEVRVTPTKTEVIIRATRTQDVLGENGRRINELTLLVQKRFKYAPGTIVLYAERVQDRGLSAVAQAESMKFKLLNGLAIRRAAYGVVRYVMESGAKGCEVVVSGKLRAARAKAMKFADGFLIHSGQPVNDFIDTATRHVLMRQGVLGIKVKIMRDPAKSRTGPKALPDAVTIIEPKEEEPILAPSVKDYRPAEETEAQAEPVEA
B7: Nob1 (protein, UniProt Q08444 1-459)
chain: MTENQTAHVRALILDATPLITQSYTHYQNYAQSFYTTPTVFQEIKDAQARKNLEIWQSLGTLKLVHPSENSIAKVSTFAKLTGDYSVLSANDLHILALTYELEIKLNNGDWRLRKKPGDALDASKADVGTDGKQKLTEDNKKEEDSESVPKKKNKRRGGKKQKAKREAREAREAENANLELESKAEEHVEEAGSKEQICNDENIKESSDLNEVFEDADDDGDWITPENLTEAIIKDSGEDTTGSLGVEASEEDRHVALNRPENQVALATGDFAVQNVALQMNLNLMNFMSGLKIKRIRNYMLRCHACFKIFPLPKDGKPKHFCASCGGQGTLLRCAVSVDSRTGNVTPHLKSNFQWNNRGNRYSVASPLSKNSQKRYGKKGHVHSKPQENVILREDQKEYEKVIKQEEWTRRHNEKILNNWIGGGSADNYISPFAITGLKQHNVRIGKGRYVNSSKRRS
B8: casein kinase type protein kinase Hrr25 (enzyme, UniProt P29295 1-494)
chain: MDLRVGRKFRIGRKIGSGSFGDIYHGTNLISGEEVAIKLESIRSRHPQLDYESRVYRYLSGGVGIPFIRWFGREGEYNAMVIDLLGPSLEDLFNYCHRRFSFKTVIMLALQMFCRIQYIHGRSFIHRDIKPDNFLMGVGRRGSTVHVIDFGLSKKYRDFNTHRHIPYRENKSLTGTARYASVNTHLGIEQSRRDDLESLGYVLIYFCKGSLPWQGLKATTKKQKYDRIMEKKLNVSVETLCSGLPLEFQEYMAYCKNLKFDEKPDYLFLARLFKDLSIKLEYHNDHLFDWTMLRYTKAMVEKQRDLLIEKGDLNANSNAASASNSTDNKSETFNKIKLLAMKKFPTHFHYYKNEDKHNPSPEEIKQQTILNNNAASSLPEELLNALDKGMENLRQQQPQQQVQSSQPQPQPQQLQQQPNGQRPNYYPEPLLQQQQRDSQEQQQQVPMATTRATQYPPQINSNNFNTNQASVPPQMRSNPQQPPQDKPAGQSIWL
B9: Slx9 (protein, UniProt P53251 1-210)
chain: T1 sequence
B10: rpS20 (uS10) (protein, UniProt P38701 1-121)
chain: MSDFQKEKVEEQEQQQQQIIKIRITLTSTKVKQLENVSSNIVKNAEQHNLVKKGPVRLPTKVLKISTRKTPNGEGSKTWETYEMRIHKRYIDLEAPVQIVKRITQITIEPGVDVEVVVASN

These are yes or no findings as the source states them, for the method shown. Binding seen in cells or lysates may run through a third protein. Here binding means that the protein was enriched with, or labelled near, the bait; the list need not be complete. For part of these data: Sequences can lack the tags named with a protein.

In the first experiment the target is T1, TAP tagged Slx9 (S. cerevisiae). Description: affinity purification with mass spectrometry; TAP tagged Slx9 with associated SSU precursors purified from yeast cellular extracts on rabbit immunoglobulin G coupled to magnetic beads; semi-quantitative mass spectrometry with iTRAQ 4plex; wild type cells and cells shifted to glucose for four hours to deplete rpS2, rpS3 or rpS21.
Regarding Rio2 (from UniProt P40160 1-425), the binding entry was “binds”. The same measure, in the same setting: to B1 belongs “binds”; to B2, “binds”; to B3, “binds”.

The next experiment concerns the target TAP tagged Rio2 (S. cerevisiae) (UniProt P40160). Description: affinity purification with mass spectrometry; TAP tagged Rio2 with associated SSU precursors purified from yeast cellular extracts on rabbit immunoglobulin G coupled to magnetic beads; semi-quantitative mass spectrometry with iTRAQ 4plex; wild type cells and cells shifted to glucose for two or four hours to deplete rpS0, rpS2, rpS21, rpS3, rpS20 or rpS29.
Regarding B4, the binding entry is recorded as “binds”. The same measure, in the same setting: to B5 belongs “binds”; to B2, “binds”. Turning to B6, the binding result is recorded as “binds”.

Turning to B7, the binding entry is “binds”. Still for that read-out and setting: for B8 the value was “binds”; for B3, “binds”. On the same count and under the same terms, to B9 belongs “binds”. On the same count and under the same terms, to B10 belongs “binds”.

The target is the same in another experiment. Described as above. The source holds these as a separate data set.
Regarding Dim1 (from UniProt P41819 1-318), the binding entry was “binds”. Still for that read-out and setting: for rpS10 (eS10) (from UniProt Q08745) the value was “binds”; for rpS21 (eS21) (from UniProt P0C0V8), “binds”. For rpS0 (uS2) (from UniProt P32905), the binding result was “binds”.

With rpS17 (from UniProt P02407), the binding result is “binds”.
